Article PMC9950432

Biological target: human PD-L1/CD274-glutathione-S-transferase (GST) fusion protein (human)
Experiment: pull-down; GST pull-down with the Pierce GST Protein Interaction Pull-Down Kit; recombinant GST-PD-L1 as bait, USP8-His as prey, recombinant human GST as control; both purified

B1: human USP8-6*His fusion protein (enzyme, UniProt P40818 1-1118)
chain: MPAVASVPKELYLSSSLKDLNKKTEVKPEKISTKSYVHSALKIFKTAEECRLDRDEERAYVLYMKYVTVYNLIKKRPDFKQQQDYFHSILGPGNIKKAVEEAERLSESLKLRYEEAEVRKKLEEKDRQEEAQRLQQKRQETGREDGGTLAKGSLENVLDSKDKTQKSNGEKNEKCETKEKGAITAKELYTMMTDKNISLIIMDARRMQDYQDSCILHSLSVPEEAISPGVTASWIEAHLPDDSKDTWKKRGNVEYVVLLDWFSSAKDLQIGTTLRSLKDALFKWESKTVLRNEPLVLEGGYENWLLCYPQYTTNAKVTPPPRRQNEEVSISLDFTYPSLEESIPSKPAAQTPPASIEVDENIELISGQNERMGPLNISTPVEPVAASKSDVSPIIQPVPSIKNVPQIDRTKKPAVKLPEEHRIKSESTNHEQQSPQSGKVIPDRSTKPVVFSPTLMLTDEEKARIHAETALLMEKNKQEKELRERQQEEQKEKLRKEEQEQKAKKKQEAEENEITEKQQKAKEEMEKKESEQAKKEDKETSAKRGKEITGVKRQSKSEHETSDAKKSVEDRGKRCPTPEIQKKSTGDVPHTSVTGDSGSGKPFKIKGQPESGILRTGTFREDTDDTERNKAQREPLTRARSEEMGRIVPGLPSGWAKFLDPITGTFRYYHSPTNTVHMYPPEMAPSSAPPSTPPTHKAKPQIPAERDREPSKLKRSYSSPDITQAIQEEEKRKPTVTPTVNRENKPTCYPKAEISRLSASQIRNLNPVFGGSGPALTGLRNLGNTCYMNSILQCLCNAPHLADYFNRNCYQDDINRSNLLGHKGEVAEEFGIIMKALWTGQYRYISPKDFKITIGKINDQFAGYSQQDSQELLLFLMDGLHEDLNKADNRKRYKEENNDHLDDFKAAEHAWQKHKQLNESIIVALFQGQFKSTVQCLTCHKKSRTFEAFMYLSLPLASTSKCTLQDCLRLFSKEEKLTDNNRFYCSHCRARRDSLKKIEIWKLPPVLLVHLKRFSYDGRWKQKLQTSVDFPLENLDLSQYVIGPKNNLKKYNLFSVSNHYGGLDGGHYTAYCKNAARQRWFKFDDHEVSDISVSSVKSSAAYILFYTSLGPRVTDVAT
binding: binds

These are yes or no findings as the source states them, for the method shown. A result given as binding can be weak or reduced; the word gives no strength. Where a sequence is shown, tags or fusion partners need not be part of it.
